The comparison behind a weaker result is the experiment's own reference, which may not be listed here.
Biological target: YT521-B YTH domain (Rattus norvegicus) (UniProt Q9QY02)
Experiment: NMR titration (1H-15N HSQC)
Conditions: 20 C, 0.2 mM protein, fast/intermediate exchange; 25 mM NaH2PO4, 25 mM NaCl, 10 mM beta-mercaptoethanol, pH 7; recombinant protein; residues 347-502

UGACAC [5'-UGACAC-3']
binding result: binds more weakly
